In all, about 300,000 compounds went through this assay and about 3,700 (1.2%) were called active. The inconclusive results got no clear call from the source; some entries with a clear call stand among them for comparison. Calls follow the shape of the full dose curve; tested in HEK293 cells. Potencies beside an inconclusive call are fits to weak or partial responses and may not hold up.
Experiment: qHTS for Inhibitors of binding or entry into cells for Lassa Virus; also: nearly all actives have a fitted effect of over 50% in size
Conditions: Lassa virus pseudotype entry inhibition, cell reporter; series mostly up to 37.9 µM
Potency is read from the fitted curve at half-maximal effect.

| Compound | Potency |
| --- | --- |
| Cc1ccc(S(=O)(=O)NCCSc2nnnn2-c2cc(C)ccc2C)cc1 | active: 8.91 µM |
| O=C(CN(CC1CCCO1)C(=O)CNS(=O)(=O)c1ccccc1)NCc1ccco1 (centres undefined) | inactive |
| Cc1nc2ccc(C(=O)Nc3ccc(N(C)C)cc3)cc2s1 | inconclusive: 3.98 µM [inhibitor, single point] |
| COc1cc(-c2nnc(SCC(=O)NCc3ccccc3Cl)o2)cc(OC)c1OC | inconclusive: 3.98 µM [activator, single point] |
| COC(=O)C1=C(C)N(Cc2ccc(C)cc2)C(=O)/C1=C\c1ccc(O)c(OC)c1 | inconclusive: 20 µM [inhibitor, partial curve, poor fit] |
| COc1ccc(NC(=O)Cc2csc(NC(=O)Nc3ccccc3OC)n2)c(OC)c1 | inactive |
| O=C(Cc1ccc(F)cc1)NC1CC(=O)N(c2ccccc2)C1 (centres undefined) | inactive |
| CCC(=O)OC1(Cc2ccc(CC)cc2)CC(C)N(C)CC1C (centres undefined) | inconclusive: 35.5 µM [inhibitor, single point] |
| O=C(CCNc1ccccc1)c1ccc2c(c1)OCO2 | inconclusive: 0.13 µM [activator, full curve] |
| COc1cc(/C=C2\SC(c3ccc(C)cc3)=NC2=O)cc(OC)c1OC | inactive |
| O=S(=O)(NC1c2cccc3cccc(c23)C1N1CCN(CCO)CC1)c1ccccc1 (centres undefined) | inconclusive: 25.1 µM [inhibitor, single point] |
| COc1ccccc1NC(=O)C1=C(C)Nc2nc(CCCO)nn2C1c1ccc2c(c1)OCO2 (centres undefined) | inconclusive: 17.8 µM [inhibitor, single point] |
| O=C(O)c1ccc(Cn2cnc3sc4c(c3c2=O)CCCC4)cc1 | inactive |
| COc1cccc(Oc2nc(-c3ccncc3)nc3ccccc23)c1 | inconclusive: 22.4 µM [inhibitor, single point] |
| CC(C)c1ccc(NC(=O)c2cc(S(=O)(=O)NCC3COc4ccccc4O3)ccc2F)cc1 (centres undefined) | inconclusive: 35.5 µM [inhibitor, single point] |
| OC(CCN1CCCC1)(c1ccccc1)C1CCCCC1 (centres undefined) | inconclusive: 29.1 µM [inhibitor, single point] |
| CCOc1ccccc1/C=C/c1onc(C)c1S(=O)(=O)N1CCC(C(=O)N(CC)CC)CC1 | inconclusive: 7.08 µM [inhibitor, partial curve] |
| Nc1nnc(-c2cn(-c3ccccc3)nc2-c2ccc(Cl)cc2)o1 | inactive |
| O=C(CSc1n[nH]c(-c2ccccc2Br)n1)NC(=O)NCc1ccco1 | inconclusive: 0.0058 µM [inhibitor, full curve, poor fit] |
| O=C1Nc2c(c(=O)[nH]c(=O)n2-c2ccccc2)C1(NS(=O)(=O)c1ccc(Cl)cc1)C(F)(F)F (centres undefined) | inactive |
| CCCCCC(=O)Nc1ccc(C(=O)COC(=O)CN2C(=O)NC3(CCCC3)C2=O)cc1 | inactive |
| Cc1ccc(-c2nc3ccccc3nc2-c2ccccc2)cc1 | inconclusive: 14.1 µM [inhibitor, single point] |
| CCN(CC)CCn1c(=S)[nH]c2cc3c(cc2c1=O)OCO3 | inactive |

As entered above:
OC(CCN1CCCC1)(c1ccccc1)C1CCCCC1 (centres undefined) – Potency: inconclusive: 29.1 µM [inhibitor, single point]
COc1cc(-c2nnc(SCC(=O)NCc3ccccc3Cl)o2)cc(OC)c1OC – Potency: inconclusive: 3.98 µM [activator, single point]
Cc1ccc(-c2nc3ccccc3nc2-c2ccccc2)cc1 – Potency: inconclusive: 14.1 µM [inhibitor, single point]

Later entries:

| Compound | Potency |
| --- | --- |
| CCOC(=O)c1cnc2cc(-c3ccc(Cl)cc3)nn2c1-c1ccccc1 | inactive |
| O=C(Cc1ccccc1)Nc1nc2ccccc2[nH]1 | inconclusive: 16.4 µM [activator, single point] |
| COc1ccc2c(Cl)c(C(=O)NN3CCN(C)CC3)sc2c1 | inconclusive: 11.2 µM [activator, partial curve, poor fit] |
| COc1ccc(-c2cnnn2-c2ccc(NC(=O)c3ccc(S(=O)(=O)N(C)C)cc3)cc2)cc1 | inconclusive: 1.78 µM [inhibitor, partial curve, poor fit] |
| Cc1c(Cl)ccc2c(C(=O)NCCN3CCCCC3)cc(-c3ccccn3)nc12 | inactive |
| COc1ccc(-c2cnnn2-c2ccc(NC(=O)c3c(F)cccc3F)cc2)cc1 | inconclusive: 2.82 µM [inhibitor, partial curve, poor fit] |
| Cc1ccc(OCC(=O)Nc2ccc(N(C)C)cc2)cc1 | inactive |
| O/N=C/c1ccnc(SCc2ccc(Cl)cc2)n1 | inconclusive: 4.47 µM [activator, single point] |
| CCC(Sc1nc2n[nH]c(C)c2c(=N)n1-c1cccc(Cl)c1)C(=O)NCCOC (centres undefined) | inconclusive: 20 µM [inhibitor, single point] |
| CN1CCN(c2ccccc2NC(=O)c2cccc(OCc3ccccc3)c2)CC1 | inactive |
| CCCCN(C(=O)C1CCCC1)c1c(N)n(CCC)c(=O)[nH]c1=O | inactive |
| CCc1ccc(/C(C)=N/NC(=O)c2c[nH]c3ccccc23)s1 | inconclusive: 3.16 µM [inhibitor, single point] |
| COc1cc(NC(=O)c2ccc([N+](=O)[O-])o2)ccc1NC(=O)c1cccs1 | inconclusive: 10 µM [inhibitor, partial curve, poor fit] |
| Cc1cc(C)cc(NC2=CC(=O)CC(c3ccco3)C2)c1 (centres undefined) | inconclusive: 2.06 µM [inhibitor, partial curve] |
| Cc1sc2nc(C)n(/N=C/N(C)C)c(=O)c2c1C | inactive |
| Cc1cc(OCC(=O)N(Cc2sccc2C)C2CCS(=O)(=O)C2)ccc1Cl (centres undefined) | inconclusive: 3.55 µM [inhibitor, single point] |
| CCS(=O)(=O)Nc1ccc(C2=NN(C(=S)Nc3ccccc3)C(c3ccco3)C2)cc1 (centres undefined) | inconclusive: 20.6 µM [inhibitor, partial curve, poor fit] |
| COc1ccc(CNC(=O)CN2C(=O)c3cccnc3Oc3ccc(C)cc32)cc1 | inconclusive: 25.1 µM [activator, single point] |
| COc1ccc(S(=O)(=O)NC2CC3CCC2C3)cc1 (centres undefined) | inactive |
| N#C/C(=C\c1ccccc1)C(=O)NC(=O)Oc1ccccc1 | inactive |
| Cc1cccc(-c2ocnc2C(=O)Nc2ccccc2NC(=O)c2ccccn2)c1 | inconclusive: 11.2 µM [inhibitor, partial curve, poor fit] |
| O=C(COC(=O)c1ccccn1)c1cccc(Br)c1 | inactive |
| CCCc1cc(C(=O)N/N=C/c2ccc(C)o2)c2ccccc2n1 | inconclusive: 32.6 µM [inhibitor, partial curve, poor fit] |

By substructure: those above containing bromine.

| Compound | Potency |
| --- | --- |
| O=C(CSc1n[nH]c(-c2ccccc2Br)n1)NC(=O)NCc1ccco1 | inconclusive: 0.0058 µM [inhibitor, full curve, poor fit] |
| O=C(COC(=O)c1ccccn1)c1cccc(Br)c1 | inactive |

Next part.

| Compound | Potency |
| --- | --- |
| CCOC(=O)c1ccccc1NC(=O)N(C)CCc1c(C)nn(CC)c1C | inactive |
| O=C1CCN(Cc2nc(-c3ccc(Cl)cc3)no2)CCN1 | inactive |
| CCc1ccc(NC(=O)C(C)OC(=O)C2CCN(c3ccc(C(F)(F)F)cn3)CC2)cc1 (centres undefined) | inconclusive: 11.2 µM [activator, partial curve, poor fit] |
| COc1ccc(-n2c(C)nc3cc(C(=O)NCc4ccc5c(c4)OCO5)ccc32)cc1 | inconclusive: 25.9 µM [inhibitor, single point] |
| Cc1ccc(CNC(=O)CN2C(=O)COc3ccc(C)cc32)cc1 | inconclusive: 10.3 µM [activator, partial curve, poor fit] |
| O=S(=O)(c1ccc2ccccc2c1)N1CCN(C2CCN(Cc3ccccc3)CC2)CC1 | inconclusive: 29.1 µM [inhibitor, single point] |
| CCCCNCC(O)(c1ccc(Cl)cc1)c1ccc(Cl)cc1 | inconclusive: 35.5 µM [inhibitor, single point] |
| CCC(=O)c1ccc(N2CCCCCC2)c(F)c1 | inconclusive: 17.8 µM [activator, partial curve, poor fit] |
| O=C(Nc1ccc(Br)cn1)c1cccc2ccccc12 | inactive |
| Cc1cccc(OCCn2c(=O)sc3ccccc32)c1 | inconclusive: 22.4 µM [inhibitor, single point] |
| COC(=O)Cc1ccc(NC(=S)NCc2ccccc2Cl)cc1 | inconclusive: 1.26 µM [inhibitor, single point] |
| O=C(NCCCN1CCN(c2ccc(F)cc2)CC1)NC12CC3CC(CC(C3)C1)C2 | inconclusive: 11.2 µM [inhibitor, single point] |
| CNC(=S)N1N=C(c2ccc(C)cc2)CC1c1cc(OC)ccc1OC (centres undefined) | inconclusive: 17.8 µM [inhibitor, single point] |
| CCOC(=O)N1CCc2c(sc3c2c(=O)n(CCc2ccccc2)c(=O)n3Cc2c(F)cccc2Cl)C1 | inactive |
| CCOC(=O)C(NS(=O)(=O)c1ccc(C)cc1)(C(F)(F)F)P(=O)(OCC(C)C)OCC(C)C (centres undefined) | inconclusive: 22.4 µM [inhibitor, single point] |
| O=C(Cc1n[nH]c(=O)c2ccccc12)OCC(=O)c1ccc2c(c1)OCCO2 | inconclusive: 1.3 µM [inhibitor, partial curve] |
| N#C/C(=C/c1ccc(OCc2ccc(C(=O)O)cc2)c(Br)c1)c1cccc(F)c1 | inconclusive: 35.5 µM [inhibitor, single point] |
| Cc1cc(Nc2cccc(Cl)c2)nc2ccc(NC(=O)c3cccnc3)cc12 | inactive |
| Cc1nnsc1C(=O)NC1CCCc2c1cnn2-c1ccc(F)cc1F (centres undefined) | inconclusive: 0.355 µM [inhibitor, full curve, poor fit] |
| O=C(NC(=S)Nc1cccc(Cl)c1)c1cncc(Br)c1 | inconclusive: 28.2 µM [inhibitor, partial curve, poor fit] |
| Nc1nc(-c2cccnc2)nn1C(=O)c1ccc(F)cc1 | inactive |
| CCSc1ncc(Cl)c(C(=O)Nc2ccc(S(=O)(=O)N(C)c3ccccc3)cc2)n1 | inconclusive: 25.1 µM [inhibitor, single point] |
| Cc1ccc(NC(=O)c2ccc(Cl)nc2)cc1S(=O)(=O)N1CCOCC1 | inconclusive: 3.98 µM [inhibitor, full curve] |
